# Earlier results, collected in patent publication US7763644B2, “Imidazole derivatives, processes for preparing them and their uses” (UCB Pharma, S.A., priority 2003, dated 2010).
# At least one structure is not confirmed: it was looked up by name or label, or the drawing left a doubt.
# Settings: cited from earlier work
smiles,measurement,value
CC[C@H](C(N)=O)N1CCCC1=O [(R)-α-ethyl-2-oxo-1-pyrrolidine acetamide],activity in the treatment of epilepsy,completely lacks activity
